Laboratory results published in patent publication US20130324409A1.
No constants are given. Whether binding was seen depends on the method and setting. For part of these data: Binding seen in cells or lysates may run through a third protein. Some results given as binding are weak or reduced against the parent protein; the word gives no strength. Each block holds one substance with its values, some of them ahead of it.

Sequences of proteins named here, by UniProt entry; tags and fusion partners are left off. A change or cut given only in a name is not applied to a line headed by its entry. Residues count along the entry.
UniProt Q9CAJ0, residues 23-511: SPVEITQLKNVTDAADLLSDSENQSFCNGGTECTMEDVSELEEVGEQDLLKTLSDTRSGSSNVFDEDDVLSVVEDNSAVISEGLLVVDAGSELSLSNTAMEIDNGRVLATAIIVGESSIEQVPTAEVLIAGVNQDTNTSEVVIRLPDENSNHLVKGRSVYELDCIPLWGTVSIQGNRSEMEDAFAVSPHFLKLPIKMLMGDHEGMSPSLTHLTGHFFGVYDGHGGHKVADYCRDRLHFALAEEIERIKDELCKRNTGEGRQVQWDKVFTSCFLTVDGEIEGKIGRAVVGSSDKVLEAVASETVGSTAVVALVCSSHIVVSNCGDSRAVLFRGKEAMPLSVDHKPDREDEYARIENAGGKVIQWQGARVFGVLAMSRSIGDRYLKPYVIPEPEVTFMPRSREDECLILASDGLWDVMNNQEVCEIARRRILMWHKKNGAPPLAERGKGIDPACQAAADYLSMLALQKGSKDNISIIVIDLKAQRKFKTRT
UniProt P49597: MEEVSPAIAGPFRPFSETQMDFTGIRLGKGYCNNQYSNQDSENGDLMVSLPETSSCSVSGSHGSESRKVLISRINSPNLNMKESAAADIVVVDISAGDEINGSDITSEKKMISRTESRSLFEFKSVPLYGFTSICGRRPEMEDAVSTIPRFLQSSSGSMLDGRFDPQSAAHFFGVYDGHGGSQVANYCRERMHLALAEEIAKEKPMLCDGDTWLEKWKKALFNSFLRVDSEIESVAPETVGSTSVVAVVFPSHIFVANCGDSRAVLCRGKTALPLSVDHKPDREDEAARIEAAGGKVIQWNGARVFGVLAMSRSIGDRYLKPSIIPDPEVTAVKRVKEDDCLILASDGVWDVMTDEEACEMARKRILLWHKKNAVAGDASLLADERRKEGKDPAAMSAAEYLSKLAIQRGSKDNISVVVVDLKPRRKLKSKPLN
UniProt O04719: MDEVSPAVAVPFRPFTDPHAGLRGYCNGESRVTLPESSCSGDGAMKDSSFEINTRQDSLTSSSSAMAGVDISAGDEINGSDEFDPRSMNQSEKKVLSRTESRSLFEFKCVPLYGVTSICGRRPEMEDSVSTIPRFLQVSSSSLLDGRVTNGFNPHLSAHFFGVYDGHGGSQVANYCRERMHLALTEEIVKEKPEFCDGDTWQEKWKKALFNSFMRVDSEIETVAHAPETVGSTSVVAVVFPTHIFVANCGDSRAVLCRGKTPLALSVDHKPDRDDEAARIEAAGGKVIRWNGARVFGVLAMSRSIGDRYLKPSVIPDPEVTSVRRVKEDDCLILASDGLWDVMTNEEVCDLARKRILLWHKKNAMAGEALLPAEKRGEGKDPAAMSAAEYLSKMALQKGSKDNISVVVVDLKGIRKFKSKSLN
UniProt O49686: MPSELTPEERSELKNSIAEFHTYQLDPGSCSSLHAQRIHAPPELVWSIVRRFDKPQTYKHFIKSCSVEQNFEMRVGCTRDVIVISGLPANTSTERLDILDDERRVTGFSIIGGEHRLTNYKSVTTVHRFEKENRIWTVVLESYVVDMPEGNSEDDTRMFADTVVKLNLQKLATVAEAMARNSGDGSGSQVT

Experiments:
GST-HAB1 (Arabidopsis) = GST-HAB1 (Arabidopsis) (UniProt Q9CAJ0); experiment: His-tag pull-down, purified 6×His-PYR1 and GST-HAB1, SDS-PAGE
GST-ABI1 = GST-ABI1 (UniProt P49597); experiment: His-tag pull-down, purified 6×His-PYR1 and E. coli lysate holding GST-ABI1, SDS-PAGE
GST-ABI2 = GST-ABI2 (UniProt O04719); experiment: His-tag pull-down, purified 6×His-PYR1 and E. coli lysate holding GST-ABI2, SDS-PAGE
[1] = target: AD-HAB1 fusion protein (Arabidopsis) (UniProt Q9CAJ0); experiment: yeast two-hybrid, X-gal stain, 10 µM pyrabactin
[2] = target: AD-HAB1 fusion protein (Arabidopsis) (UniProt Q9CAJ0); experiment: yeast two-hybrid, X-gal stain, 10 µM (+)-ABA or 10 µM pyrabactin
[3] = target: AD-HAB1 fusion protein (Arabidopsis) (UniProt Q9CAJ0); experiment: yeast two-hybrid, X-gal stain, with ABA

- binding (GST-HAB1 (Arabidopsis)): binds
- binding (GST-ABI1): binds
- binding (GST-ABI2): binds
Substance: 6×His-PYR1 (from UniProt O49686 1-191) (receptor)

- binding [1]: binds
- binding [2]: binds
Substance: BD-PYR1 fusion protein (from UniProt O49686 1-191) (receptor)

- binding [3]: binds
Substance: PYR1^R157H (yeast two-hybrid construct) (from UniProt O49686 1-191) (receptor)
